Experimental data as given in patent US5849771A, “Phosphorylated nitrone derivatives, method for preparing same, and compositions containing said derivatives” (Centre National de la Recherche Scientifique (C.N.R.S.), priority 1995, dated 1998).

Columns and labels:
[1] = EPR spin trapping of HO^. radicals (Fenton's method); settings: adduct PPN--OH
Procedure: In this experiment the HO^. radicals were produced by Fenton's method in a 1.1M phosphate buffer at pH=7 in the presence of the […] system. This classical reaction for producing HO^. radicals can be expressed more simply as follows:
H2 O2 +Fe(II)→HO^. +HO-+Fe(III).
The EPR spectrum of the adduct from trapping is recorded approximately 40 s after addition of the ferrous sulphate.
(§1) The stability of these adducts makes it possible to measure the respective coupling constants of the unpaired electron with the nuclei of nitrogen (AN), of hydrogen β to the nitrogen atom (AH) and of phosphorus (AP). These values have been shown together in Table 3 which follows: […]

[2] = EPR spin trapping of O2^.-/HOO^. radicals (hypoxanthine/xanthine oxidase system); settings: adduct PPN--OOH
Procedure: For the production of the HOO^. radicals the hypoxanthine/xanthine oxidase system is employed in a 0.1M phosphate buffer maintained at ambient temperature. The oxygen resulting in the formation of the HOO^. radicals is that initially dissolved in the 0.1M phosphate buffer.
The hypoxanthine/xanthine oxidase system contains 0.1M of a phosphate buffer, […] of hypoxanthine, 1 mM of diethylenetriaminepentaacetic acid (DTPA), 0.4 units cm^-3 of xanthine oxidase (marketed by the company Boehringer Mannheim Biochemica Co.), and 0.1M of the nitrone being tested. The EPR spectra of the adducts from trapping are recorded approximately 40 s after the addition of xanthine oxidase.
as §1

Structure (SMILES) | AH, coupling constant with hydrogen β to the nitrogen atom [1] [G] | AN, coupling constant of the unpaired electron with the nucleus of nitrogen [1] [G] | AP, coupling constant with phosphorus [1] [G] | AH, coupling constant with hydrogen β to the nitrogen atom [2] [G] | AN, coupling constant of the unpaired electron with the nucleus of nitrogen [2] [G] | AP, coupling constant with phosphorus [2] [G]
CCOP(=O)(OCC)C(C)(C)N([O])C(O)c1ccccc1 (stereo not drawn) [PPN--OH] | 14.6 | 2.7 | 43.2 | – | – | –
CCOP(=O)(OCC)C(C)(C)N([O])C(OO)c1ccccc1 (stereo not drawn) [PPN--OOH] | – | – | – | 13.5 | 2.1 | 41.3
